From patent US20120129778A1
Results are given in words; binding and its absence hold for the method and conditions named. Some entries that bind do so weakly or less than the wild type.

Target: T1, mouse TGF-β receptor type II on mouse cells (RAW 264.7, MC3T3-E1) (mouse) (UniProt Q62312)
T1 sequence (looked up): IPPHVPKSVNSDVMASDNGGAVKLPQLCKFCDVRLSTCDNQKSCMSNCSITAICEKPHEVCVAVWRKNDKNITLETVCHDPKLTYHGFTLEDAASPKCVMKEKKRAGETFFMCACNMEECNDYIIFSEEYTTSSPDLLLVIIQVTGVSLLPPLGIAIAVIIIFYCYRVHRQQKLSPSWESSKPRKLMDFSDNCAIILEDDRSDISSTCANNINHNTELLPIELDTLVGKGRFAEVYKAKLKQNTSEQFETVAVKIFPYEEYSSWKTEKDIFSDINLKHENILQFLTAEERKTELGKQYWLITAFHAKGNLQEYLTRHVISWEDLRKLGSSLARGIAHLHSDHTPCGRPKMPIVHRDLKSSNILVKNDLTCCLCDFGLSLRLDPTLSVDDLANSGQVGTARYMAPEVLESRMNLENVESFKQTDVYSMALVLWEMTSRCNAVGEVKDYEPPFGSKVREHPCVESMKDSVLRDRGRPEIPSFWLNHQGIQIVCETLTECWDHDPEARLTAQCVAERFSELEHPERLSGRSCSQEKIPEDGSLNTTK
Assay: inferred by the filing from mouse cell signalling assays (MC3T3-E1 luciferase, RAW 264.7 phospho-Smad)

binding: binds
B1: DOM23h-271-12 (protein)
VH: EVQLLESGGGLVQPGGSLRLSCTASGFTFTEYRMWWVRQAPGKGLEWVSLIEPIGNRTYYANSVRGRFTISRDNSKNTLYLQMNSLRAEDTAVYYCAKQIPGHMWTANPRSDYWGQGTQVTVSS
